{"source": "PubChem BioAssay AID1259405 (NCATS, 2018)", "assay": "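Mouse-designed siRNAs used to find CHO productivity engineering targets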 (primary screen)", "cell system": "Chinese hamster CHO-K1 ovary cells with stable secreted eGFP expression", "knock-down reagent": "single siRNA against mouse genes, 0.8 pmol siRNA per well (2 µl of 400 nM stock)", "time to read-out": "3 days", "detection": "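Per-well intracellular GFP measured by laser scanning cytometry, plus viability from ATP luminescence, each relative to plate median of non-targeting control wells, in %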", "reading the numbers": "GFP, % of control: higher = more GFP per well, higher productivity; viability (ATP), % of control: higher = more viable cells (more ATP)", "active means": "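Called active when intracellular GFP, relative to negative control, is at or above 120%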", "note": "In all, the deposit lists about 50,000 reagents; shown is an unselected part. In the full data, about 4,000 (8%) got an active call. 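Mouse siRNA library applied to hamster cells; one well for each siRNA.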 Entries without a mark were called inactive."}
{"Target gene": "Ccr6", "PubChem SID": "SID363571200", "GFP, % of control": 68.4, "viability (ATP), % of control": 67.8}
{"Target gene": "Ccr6", "PubChem SID": "SID363571552", "GFP, % of control": 67.1, "viability (ATP), % of control": 65.5}
{"Target gene": "Ccr6", "PubChem SID": "SID363571904", "GFP, % of control": 81.6, "viability (ATP), % of control": 73.3}
{"Target gene": "Mettl18", "PubChem SID": "SID363543847", "GFP, % of control": 92.5, "viability (ATP), % of control": 82.3}
{"Target gene": "Mettl18", "PubChem SID": "SID363551583", "GFP, % of control": 93.7, "viability (ATP), % of control": 70.5}
{"Target gene": "Mettl18", "PubChem SID": "SID363559188", "GFP, % of control": "128 (active)", "viability (ATP), % of control": 55.4}
{"Target gene": "Tmem97", "PubChem SID": "SID363543581", "GFP, % of control": 63.9, "viability (ATP), % of control": 64.3}
{"Target gene": "Tmem97", "PubChem SID": "SID363553074", "GFP, % of control": 101, "viability (ATP), % of control": 83.7}
{"Target gene": "Tmem97", "PubChem SID": "SID363558922", "GFP, % of control": 107, "viability (ATP), % of control": 74.3}
{"Target gene": "Bag4", "PubChem SID": "SID363572748", "GFP, % of control": 24.7, "viability (ATP), % of control": 59.5}
{"Target gene": "Bag4", "PubChem SID": "SID363578028", "GFP, % of control": 114, "viability (ATP), % of control": 105}
{"Target gene": "Bag4", "PubChem SID": "SID363582252", "GFP, % of control": 51.9, "viability (ATP), % of control": 99.5}
{"Target gene": "Brd2", "PubChem SID": "SID363569387", "GFP, % of control": 83.8, "viability (ATP), % of control": 114}
{"Target gene": "Brd2", "PubChem SID": "SID363577131", "GFP, % of control": 68.4, "viability (ATP), % of control": 60.5}
{"Target gene": "Brd2", "PubChem SID": "SID363578539", "GFP, % of control": 61.6, "viability (ATP), % of control": 45.6}
{"Target gene": "Dazl", "PubChem SID": "SID363569518", "GFP, % of control": 84, "viability (ATP), % of control": 89.3}
{"Target gene": "Dazl", "PubChem SID": "SID363577262", "GFP, % of control": 102, "viability (ATP), % of control": 98.6}
{"Target gene": "Dazl", "PubChem SID": "SID363578670", "GFP, % of control": 95.9, "viability (ATP), % of control": 67.3}

4 entries from above, sorted by “GFP, % of control”, low to high.
{"Target gene": "Bag4", "PubChem SID": "SID363572748", "GFP, % of control": 24.7, "viability (ATP), % of control": 59.5}
{"Target gene": "Tmem97", "PubChem SID": "SID363543581", "GFP, % of control": 63.9, "viability (ATP), % of control": 64.3}
{"Target gene": "Tmem97", "PubChem SID": "SID363553074", "GFP, % of control": 101, "viability (ATP), % of control": 83.7}
{"Target gene": "Tmem97", "PubChem SID": "SID363558922", "GFP, % of control": 107, "viability (ATP), % of control": 74.3}

The results go on.
{"Target gene": "Gna13", "PubChem SID": "SID363570056", "GFP, % of control": "131 (active)", "viability (ATP), % of control": 120}
{"Target gene": "Gna13", "PubChem SID": "SID363576392", "GFP, % of control": 102, "viability (ATP), % of control": 90}
{"Target gene": "Gna13", "PubChem SID": "SID363579560", "GFP, % of control": 73, "viability (ATP), % of control": 60.6}
{"Target gene": "Atp6v0b", "PubChem SID": "SID363545120", "GFP, % of control": 90.8, "viability (ATP), % of control": 69.9}
{"Target gene": "Atp6v0b", "PubChem SID": "SID363548633", "GFP, % of control": 76.7, "viability (ATP), % of control": 73.9}
{"Target gene": "Atp6v0b", "PubChem SID": "SID363562439", "GFP, % of control": 56.1, "viability (ATP), % of control": 43}
{"Target gene": "Gtf2ird2", "PubChem SID": "SID363555492", "GFP, % of control": 50.2, "viability (ATP), % of control": 53.3}
{"Target gene": "Gtf2ird2", "PubChem SID": "SID363564153", "GFP, % of control": 60.9, "viability (ATP), % of control": 65.3}
{"Target gene": "Gtf2ird2", "PubChem SID": "SID363587699", "GFP, % of control": 89.6, "viability (ATP), % of control": 78.3}
